Earlier results as cited in patent publication US20240325362A1, “NOVEL THERAPEUTIC METHOD FOR ENHANCING MITOCHONDRIAL FUNCTION, TREATING MITOCHONDRIAL DISEASES THEREBY, AND COMPOUNDS USED THEREIN” (STANDIGM INC., priority 2020, published 2024).
For at least one compound, name, drawing or mass did not settle the structure.

Tested on: mitochondrial biogenesis
Conditions: adipose tissue and patient cells with Friedreich's ataxia and Down syndrome

## CCc1ccc(CCOc2ccc(CC3SC(=O)NC3=O)cc2)nc1 (centres unmarked) [Pioglitazone, pioglitazone]
  mitochondrial biogenesis: induce mitochondrial biogenesis

## CN(CCOc1ccc(CC2SC(=O)NC2=O)cc1)c1ccccn1 (centres unmarked) [rosiglitazone]
  mitochondrial biogenesis: induce mitochondrial biogenesis
